Experimental data: article PMC3411781
These are yes or no findings as the source states them, for the method shown. Binding seen in cells or lysates may run through a third protein. Some results given as binding are weak or reduced against the parent protein; the word gives no strength.

The chains behind the UniProt entries cited, without tags or fusion partners.
UniProt P06748: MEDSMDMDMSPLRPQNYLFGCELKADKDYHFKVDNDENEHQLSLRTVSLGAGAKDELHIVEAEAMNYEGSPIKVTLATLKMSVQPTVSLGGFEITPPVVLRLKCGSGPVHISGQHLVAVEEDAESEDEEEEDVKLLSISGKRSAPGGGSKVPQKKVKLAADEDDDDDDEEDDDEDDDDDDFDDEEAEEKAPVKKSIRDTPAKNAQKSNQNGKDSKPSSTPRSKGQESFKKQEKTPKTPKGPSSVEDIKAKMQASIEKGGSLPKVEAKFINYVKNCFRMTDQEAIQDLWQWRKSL
UniProt Q02880: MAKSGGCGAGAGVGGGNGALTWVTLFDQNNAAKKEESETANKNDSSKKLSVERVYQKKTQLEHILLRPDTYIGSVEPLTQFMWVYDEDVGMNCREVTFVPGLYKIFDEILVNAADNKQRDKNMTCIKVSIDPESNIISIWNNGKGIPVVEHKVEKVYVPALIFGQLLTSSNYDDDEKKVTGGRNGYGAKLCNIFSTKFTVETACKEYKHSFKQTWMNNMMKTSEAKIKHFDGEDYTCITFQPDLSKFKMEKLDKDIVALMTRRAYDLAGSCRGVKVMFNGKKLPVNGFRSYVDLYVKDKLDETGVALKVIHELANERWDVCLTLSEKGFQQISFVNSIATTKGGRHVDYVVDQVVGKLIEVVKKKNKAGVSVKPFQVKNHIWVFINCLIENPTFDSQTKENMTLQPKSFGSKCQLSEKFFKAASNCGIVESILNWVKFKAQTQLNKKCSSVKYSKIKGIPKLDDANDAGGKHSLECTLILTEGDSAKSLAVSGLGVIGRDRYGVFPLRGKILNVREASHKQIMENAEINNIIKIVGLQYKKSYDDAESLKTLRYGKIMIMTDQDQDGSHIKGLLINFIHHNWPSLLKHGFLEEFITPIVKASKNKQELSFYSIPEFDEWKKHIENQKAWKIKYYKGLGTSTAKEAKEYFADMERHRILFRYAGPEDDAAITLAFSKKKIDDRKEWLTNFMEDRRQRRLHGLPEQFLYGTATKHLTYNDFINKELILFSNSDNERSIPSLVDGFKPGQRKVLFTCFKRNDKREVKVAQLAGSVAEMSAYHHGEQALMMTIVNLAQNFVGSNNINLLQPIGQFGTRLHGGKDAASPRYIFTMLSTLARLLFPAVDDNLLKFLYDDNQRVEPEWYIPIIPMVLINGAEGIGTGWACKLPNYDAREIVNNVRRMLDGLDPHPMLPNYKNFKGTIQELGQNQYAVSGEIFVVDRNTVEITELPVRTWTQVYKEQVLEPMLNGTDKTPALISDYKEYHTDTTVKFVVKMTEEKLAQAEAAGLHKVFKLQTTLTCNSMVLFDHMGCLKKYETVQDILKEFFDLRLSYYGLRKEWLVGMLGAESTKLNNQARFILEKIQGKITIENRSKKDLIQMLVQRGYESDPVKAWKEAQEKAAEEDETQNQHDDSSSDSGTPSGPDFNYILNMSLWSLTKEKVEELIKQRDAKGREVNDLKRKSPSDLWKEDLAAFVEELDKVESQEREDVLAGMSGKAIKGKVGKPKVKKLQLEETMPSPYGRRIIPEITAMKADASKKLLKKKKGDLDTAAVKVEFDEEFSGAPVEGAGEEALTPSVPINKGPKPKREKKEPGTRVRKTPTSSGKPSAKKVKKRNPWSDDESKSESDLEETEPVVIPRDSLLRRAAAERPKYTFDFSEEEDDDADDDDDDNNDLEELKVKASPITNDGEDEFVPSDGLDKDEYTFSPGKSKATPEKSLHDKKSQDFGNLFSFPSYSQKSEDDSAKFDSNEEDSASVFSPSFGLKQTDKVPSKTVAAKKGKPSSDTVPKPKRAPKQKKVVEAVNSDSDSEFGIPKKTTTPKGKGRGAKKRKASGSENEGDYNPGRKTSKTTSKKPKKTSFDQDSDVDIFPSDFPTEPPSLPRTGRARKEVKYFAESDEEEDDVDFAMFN

Molecular target: T1, CCCTC-binding factor CTCF (human (endogenous in hESCs)) (UniProt P49711)
T1 sequence: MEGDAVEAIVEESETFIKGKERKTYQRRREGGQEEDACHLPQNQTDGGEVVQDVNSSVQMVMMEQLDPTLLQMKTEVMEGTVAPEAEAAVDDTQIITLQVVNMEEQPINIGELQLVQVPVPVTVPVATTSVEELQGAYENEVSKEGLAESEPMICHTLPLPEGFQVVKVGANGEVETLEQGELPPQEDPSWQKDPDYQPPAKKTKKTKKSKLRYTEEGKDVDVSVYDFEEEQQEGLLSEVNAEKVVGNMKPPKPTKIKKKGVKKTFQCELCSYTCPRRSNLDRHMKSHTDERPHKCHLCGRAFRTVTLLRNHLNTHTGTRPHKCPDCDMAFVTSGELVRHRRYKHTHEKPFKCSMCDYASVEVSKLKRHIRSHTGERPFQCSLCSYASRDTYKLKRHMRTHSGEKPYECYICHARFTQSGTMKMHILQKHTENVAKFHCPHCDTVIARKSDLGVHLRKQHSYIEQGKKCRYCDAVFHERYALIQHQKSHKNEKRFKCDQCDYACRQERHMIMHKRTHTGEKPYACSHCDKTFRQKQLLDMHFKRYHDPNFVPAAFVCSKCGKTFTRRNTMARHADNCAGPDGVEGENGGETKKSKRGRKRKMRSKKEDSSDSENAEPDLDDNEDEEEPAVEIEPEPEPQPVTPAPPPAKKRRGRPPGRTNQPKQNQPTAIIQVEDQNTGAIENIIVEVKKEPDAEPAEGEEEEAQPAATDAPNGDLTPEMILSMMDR
Test: co-IP; endogenous CTCF immunoprecipitated from hESC whole cell extract (lysis buffer with 420 mM NaCl, diluted 6X with IP buffer: 20 mM Tris HCl pH 7.5, 50 mM NaCl, 10 mM MgCl2, 2 mM EDTA, 0.5% Triton-X-100); antibody overnight at 4°C, protein-G Sepharose beads; Western blot of partners

“Nucleophosmin (from UniProt P06748 1-294)” was tested, and the binding was “binds”.
With TopoIIβ (from UniProt Q02880 1-1626) the binding was “binds”.
